The source of these data is article PMC7060279.

These are yes or no findings as the source states them, for the method shown.

For the assay, the target named is T1, CCN1-WT (recombinant matricellular protein CCN1) (UniProt P18406).
T1 sequence: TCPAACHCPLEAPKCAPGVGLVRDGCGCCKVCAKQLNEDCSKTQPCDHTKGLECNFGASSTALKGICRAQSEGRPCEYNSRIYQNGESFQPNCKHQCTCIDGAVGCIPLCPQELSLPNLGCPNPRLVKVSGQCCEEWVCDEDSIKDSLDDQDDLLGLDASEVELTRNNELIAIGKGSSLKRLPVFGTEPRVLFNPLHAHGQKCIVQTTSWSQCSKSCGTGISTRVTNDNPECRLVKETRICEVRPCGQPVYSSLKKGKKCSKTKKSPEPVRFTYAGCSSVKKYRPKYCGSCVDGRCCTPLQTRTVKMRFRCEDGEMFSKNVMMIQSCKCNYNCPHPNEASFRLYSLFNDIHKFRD
Description: ELISA; solid-phase-binding assay: 96-well plates coated with serially diluted CCN1 in bicarbonate/carbonate buffer (100 mM, pH 9.6) overnight at 4 °C, blocked with PVA; hTLR2, hTLR4 or hCD14 (0.2 µg per well) added; detected with anti-hTLR2, anti-hTLR4 or anti-hCD14 antibodies, HRP/TMB, A450; both …. (In an ELISA, binding on a coated surface is turned into a signal by an enzyme label.)

B1: recombinant human CD14 (protein, UniProt P08571 20-345)
chain: TTPEPCELDDEDFRCVCNFSEPQPDWSEAFQCVSAVEVEIHAGGLNLEPFLKRVDADADPRQYADTVKALRVRRLTVGAAQVPAQLLVGALRVLAYSRLKELTLEDLKITGTMPPLPLEATGLALSSLRLRNVSWATGRSWLAELQQWLKPGLKVLSIAQAHSPAFSCEQVRAFPALTSLDLSDNPGLGERGLMAALCPHKFPAIQNLALRNTGMETPTGVCAALAAAGVQPHSLDLSHNSLRATVNPSAPRCMWSSALNSLNLSFAGLEQVPKGLPAKLRVLDLSCNRLNRAPQPDELPEVDNLTLDGNPFLVPGTALPHEGSMN
As for B1, the binding entry is listed as “no binding (tested: 200 ng per well)”.
